Results as given in PMC3627651.
These are yes or no findings as the source states them, for the method shown. In cells and extracts the contact can be indirect. Binding can be weak; no strength is given.

The chains behind the UniProt entries cited, without tags or fusion partners. Where a name states a change or a piece, a line headed by the entry shows the natural chain unless it says otherwise.
UniProt O42478: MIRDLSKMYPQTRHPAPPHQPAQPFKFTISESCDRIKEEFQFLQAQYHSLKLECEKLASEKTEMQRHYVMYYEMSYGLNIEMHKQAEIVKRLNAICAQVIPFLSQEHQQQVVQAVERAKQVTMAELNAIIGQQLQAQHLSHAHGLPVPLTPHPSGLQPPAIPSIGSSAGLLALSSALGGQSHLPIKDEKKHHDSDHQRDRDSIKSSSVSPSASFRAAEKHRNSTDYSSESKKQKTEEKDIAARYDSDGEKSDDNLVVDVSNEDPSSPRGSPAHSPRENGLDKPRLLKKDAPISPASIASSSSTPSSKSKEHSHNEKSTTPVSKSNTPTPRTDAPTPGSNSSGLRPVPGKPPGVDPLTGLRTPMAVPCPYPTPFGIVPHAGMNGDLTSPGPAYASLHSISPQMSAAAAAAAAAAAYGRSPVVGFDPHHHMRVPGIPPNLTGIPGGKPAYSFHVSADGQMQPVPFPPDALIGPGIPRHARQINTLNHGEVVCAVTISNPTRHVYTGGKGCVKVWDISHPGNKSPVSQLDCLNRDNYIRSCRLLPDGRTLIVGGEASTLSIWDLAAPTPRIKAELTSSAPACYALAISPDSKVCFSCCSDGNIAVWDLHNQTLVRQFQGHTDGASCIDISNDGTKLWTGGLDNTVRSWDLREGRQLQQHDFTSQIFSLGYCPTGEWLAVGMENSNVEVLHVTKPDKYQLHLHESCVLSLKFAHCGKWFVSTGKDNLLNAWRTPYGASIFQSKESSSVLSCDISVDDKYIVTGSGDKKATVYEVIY
UniProt Q9PRJ8: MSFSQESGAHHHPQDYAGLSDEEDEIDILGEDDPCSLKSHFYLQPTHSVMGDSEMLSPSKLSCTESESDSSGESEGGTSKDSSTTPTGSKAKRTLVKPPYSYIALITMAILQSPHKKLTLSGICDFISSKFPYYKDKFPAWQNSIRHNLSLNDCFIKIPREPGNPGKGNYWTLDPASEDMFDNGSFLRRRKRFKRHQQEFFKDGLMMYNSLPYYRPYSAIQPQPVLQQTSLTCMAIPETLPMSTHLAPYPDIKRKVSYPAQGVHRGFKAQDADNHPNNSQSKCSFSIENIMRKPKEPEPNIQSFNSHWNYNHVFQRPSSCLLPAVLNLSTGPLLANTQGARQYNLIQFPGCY

Biological target: HA-tagged wild-type Xenopus Grg4 (Xenopus) (UniProt O42478)
Assay: co-IP; Xenopus oocytes co-injected with mRNAs for myc-tagged FoxD4L1 (wild type or C-terminal mutant) and HA-tagged Grg4; lysate (15 oocyte equivalents) in TNSG lysis buffer with 1 ug antibody (raised against HA or Flag), protein A/G agarose beads, 4 C overnight; Western blot

**Q.** With “myc-tagged wt-FoxD4L1 (from UniProt Q9PRJ8)” as the substance, how does the binding read?
**A.** The binding was “binds”.
